According to PubChem BioAssay AID296 (DTP/NCI, 2004):
The list does not hold the whole screen: it gathers tests that were run many times, whatever their T/C, doses with no T/C, and many T/C values between a quarter and a half above the control. Other doses and runs of a compound stand elsewhere. T/C: endpoint of the treated group in % of that of the vehicle group. Schedule codes are those of the source, read here as Q, the interval in days (D) or hours (H), X, the number of doses. Some T/C values are negative: the treated tumours shrank. Some entries were tested several times; the results are listed from low to high. Brackets with × stand for listed records that agree. Some T/C values are followed by the survivors on the day toxicity was checked, most often the fifth; without a count, all were alive then. Some doses have a count of surviving animals in place of a T/C: the source files T/C as zero there, which appears to mark a toxic dose or a test without result, not a measured value. Survivors were counted at the toxicity check, usually on the fifth day, unless a day is given; later deaths do not show. *1 amine or outer side, *2 acyl side, *3 side chain or, on linkers, in order; H or OH if unused. Where a SMILES comes first, the peptide text is derived from it. Bridges are numbered along the chain shown (N, C = ends). Roman numbers before positions name the chains, in order. [ ]: non-standard residue; d: D form. Actinocin(1to9) = Cc1c2oc3c(C)ccc(C(=O)[*:2])c3nc-2c(C(=O)[*:1])c(N)c1=O; NMeV = CN[CH](C(=O)O)C(C)C; Aze = O=C(O)[CH]1CCN1; Sar = CNCC(=O)O

Tested on: MX-1 breast xenograft, nude mice, tumor weight T/C
Test: NCI In Vivo Anticancer Drug Screen. Data for tumor model Human Mammary Carcinoma MX-1 Xenograft (intrarenal inoculation) in NU/NU Swiss (nude) mice
Settings: T/C endpoint: mean tumor weight change, higher T/C = larger tumour; for T/C: evaluated on day 11
In short: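 Compound dosed to mice with transplantable tumor; vehicle group as control. Endpoint survival or tumour size, reported as T/C.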

[1] = dose: 12.0 mg/kg/injection, schedule: Q04DX003 (sc), vehicle: saline
[2] = dose: 24.0 mg/kg/injection, schedule: Q04DX003 (sc), vehicle: saline
[3] = dose: 2400.0 mg/kg/injection, schedule: Q04DX003 (sc), vehicle: saline
[4] = dose: 300.0 mg/kg/injection, schedule: Q04DX003 (sc), vehicle: Klucel (hydroxypropylcellulose) (HPC)
[5] = dose: 60.0 mg/kg/injection, schedule: Q01DX010 (sc), vehicle: Klucel (hydroxypropylcellulose) (HPC)
[6] = dose: 120.0 mg/kg/injection, schedule: Q01DX010 (sc), vehicle: Klucel (hydroxypropylcellulose) (HPC)
[7] = dose: 4.0 mg/kg/injection, schedule: Q01DX010 (sc), vehicle: saline
[8] = dose: 8.0 mg/kg/injection, schedule: Q01DX010 (sc), vehicle: saline
[9] = dose: 300.0 mg/kg/injection, schedule: Q04DX003 (sc), vehicle: saline

With `CO[C@@]12[C@H](COC(N)=O)C3=C(C(=O)C(C)=C(N)C3=O)N1C[C@@H]1N[C@@H]12` the survivor count [1] was 0 of 6 on day 11, 1 of 6 on day 11, 3 of 6 on day 11 and the survivor count [2] was 0 of 6 on day 11.

For `O=c1[nH]c(=O)n([C@H]2CCCO2)cc1F`, the T/C (dose: 400.0 mg/kg/injection, schedule: Q01DX010 (sc), vehicle: Klucel (hydroxypropylcellulose) (HPC)) was 131 % of control.

In the case of `COc1cccc2c1C(=O)c1c(O)c3c(c(O)c1C2=O)C[C@@](O)(C(=O)COC(=O)c1cccnc1)C[C@@H]3OC1CC(N)C(O)C(C)O1` (stereo partly specified), the survivor count [2] is reported as 1 of 3 on day 11 and the survivor count (dose: 48.0 mg/kg/injection, schedule: Q04DX003 (sc), vehicle: saline) is reported as 0 of 3 on day 11.

In the case of `COC1OC(CO)C(O)C(NC(=O)N(C)N=O)C1O` (stereo unspecified), the survivor count [3] is reported as 0 of 6 on day 11 and 1 of 6 on day 11.

In the case of `O=C(O)Cc1cccc2c(=O)cc(-c3ccccc3)oc12`, the T/C (dose: 200.0 mg/kg/injection, schedule: Q04DX003 (ip), vehicle: suspension in saline) is reported as 147 % of control, the survivor count (dose: 400.0 mg/kg/injection, schedule: Q04DX003 (ip), vehicle: suspension in saline) is reported as 0 of 6 on day 11 and the survivor count (dose: 800.0 mg/kg/injection, schedule: Q04DX003 (ip), vehicle: suspension in saline) is reported as 0 of 6 on day 11.

`O=C1C=CC(=O)N1c1ccc(Cl)cc1` was tested, and the survivor count [4] was 0 of 6 on day 11.

`C=C1C(=O)C23[C@H](O)C1CC[C@H]2[C@]12COC3(O)[C@@H](O)[C@@H]1C(C)(C)CC[C@@H]2O` was tested, and the survivor count (dose: 50.0 mg/kg/injection, schedule: Q04DX003 (sc), vehicle: Klucel (hydroxypropylcellulose) (HPC)) was 1 of 5 on day 11 and the survivor count (dose: 100.0 mg/kg/injection, schedule: Q04DX003 (sc), vehicle: Klucel (hydroxypropylcellulose) (HPC)) was 0 of 6 on day 11.

With `CCN(CC)CCn1[nH]c2c3ccc(=O)cc3sc3c(NCCN)ccc1c32` the survivor count (dose: 25.0 mg/kg/injection, schedule: Q04DX003 (ip), vehicle: water) was 1 of 6 on day 11 and the survivor count (dose: 50.0 mg/kg/injection, schedule: Q04DX003 (ip), vehicle: water) was 0 of 6 on day 11.

`c1csc(C[N+]23CN4CN(CN(C4)C2)C3)c1` was tested, and the T/C (dose: 200.0 mg/kg/injection, schedule: Q04DX003 (sc), vehicle: saline) was 138 % of control and the survivor count (dose: 800.0 mg/kg/injection, schedule: Q04DX003 (sc), vehicle: saline) was 0 of 6 on day 11.

`C(COCCOCC1CO1)OCCOCC1CO1` (stereo unspecified) was tested, and the survivor count (dose: 1200.0 mg/kg/injection, schedule: Q04DX003 (sc), vehicle: saline) was 2 of 6 on day 11 and the survivor count [3] was 0 of 6 on day 11.

With `OC(CBr)C(O)C(O)C(O)CBr` (stereo unspecified) the survivor count (dose: 15.0 mg/kg/injection, schedule: Q01DX010 (sc), vehicle: Klucel (hydroxypropylcellulose) (HPC)) was 1 of 3 on day 11, the T/C [5] was -84, -29, -23 % of control and the survivor count [5] was 1 of 3 on day 11. For the same molecule, the T/C [6] was -61 % of control [2 of 2 alive on day 11], the survivor count [6] was 0 of 3 on day 11 and 1 of 2 on day 11 and the survivor count (dose: 240.0 mg/kg/injection, schedule: Q01DX010 (sc), vehicle: Klucel (hydroxypropylcellulose) (HPC)) was 0 of 3 on day 11. The survivor count (dose: 480.0 mg/kg/injection, schedule: Q01DX010 (sc), vehicle: Klucel (hydroxypropylcellulose) (HPC)) was 0 of 3 on day 11 and the survivor count (dose: 1600.0 mg/kg/injection, schedule: Q01DX010 (sc), vehicle: Klucel (hydroxypropylcellulose) (HPC)) was 0 of 3 on day 11.

With `N[C@@H](Cc1ccc(N(CCCl)CCCl)cc1)C(=O)O` the T/C (dose: 1.0 mg/kg/injection, schedule: Q01DX010 (sc), vehicle: saline) was 3, 6, 7 % of control (2×), the T/C (dose: 2.0 mg/kg/injection, schedule: Q01DX010 (sc), vehicle: saline) was -78, -70, -48, -27 % of control [2 of 2 alive on day 11] and the survivor count (dose: 4.0 mg/kg/injection, schedule: Q01DX010 (ip), vehicle: saline) was 0 of 3 on day 11. The T/C [7] was -89, -85, -12 % of control, the survivor count [7] was 0 of 3 on day 11 and the survivor count (dose: 4.0 mg/kg/injection, schedule: Q01DX010 (sc), vehicle: suspension in saline) was 1 of 2 on day 11. The survivor count (dose: 8.0 mg/kg/injection, schedule: Q01DX010 (ip), vehicle: saline) was 0 of 3 on day 11, the T/C [8] was -88 % of control and the survivor count [8] was 0 of 3 on day 11 and 1 of 2 on day 11. The survivor count (dose: 8.0 mg/kg/injection, schedule: Q01DX010 (sc), vehicle: suspension in saline) was 0 of 3 on day 11, the survivor count [1] was 0 of 6 on day 11 and the survivor count (dose: 12.0 mg/kg/injection, schedule: Q04DX003 (sc), vehicle: suspension in saline) was 3 of 6 on day 11. For the same molecule, the survivor count (dose: 13.3 mg/kg/injection, schedule: Q04DX003 (ip), vehicle: saline) was 0 of 3 on day 11, the survivor count (dose: 13.3 mg/kg/injection, schedule: Q04DX003 (sc), vehicle: saline) was 0 of 3 on day 11 and the survivor count (dose: 26.6 mg/kg/injection, schedule: Q04DX003 (ip), vehicle: saline) was 0 of 3 on day 11. The survivor count (dose: 26.6 mg/kg/injection, schedule: Q04DX003 (sc), vehicle: saline) was 0 of 3 on day 11.

`[N-]=[N+]=CC(=O)CCC(N)C(=O)O` (stereo unspecified) was tested, and the survivor count (dose: 0.8 mg/kg/injection, schedule: Q01DX010 (sc), vehicle: saline) was 0 of 2 on day 11 and 1 of 3 on day 11, the survivor count (dose: 1.6 mg/kg/injection, schedule: Q01DX010 (sc), vehicle: saline) was 0 of 3 on day 11 and the survivor count (dose: 3.2 mg/kg/injection, schedule: Q01DX010 (sc), vehicle: saline) was 0 of 3 on day 11. The survivor count (dose: 6.4 mg/kg/injection, schedule: Q01DX010 (sc), vehicle: saline) was 0 of 3 on day 11.

In the case of `CC(C)NC(=O)N(CCCCBr)N=O`, the survivor count [4] is reported as 1 of 4 on day 11.

In the case of `Cc1c2oc3c(C)ccc(C(=O)NC4C(=O)NC(C(C)C)C(=O)N5CCCC5C(=O)N(C)CC(=O)N(C)C(C(C)C)C(=O)OC4C)c3nc-2c(C(=O)NC2C(=O)NC(C(C)C)C(=O)N3CCC3C(=O)N(C)CC(=O)N(C)C(C(C)C)C(=O)OC2C)c(N)c1=O` (stereo unspecified) (I: TV[Aze][Sar][NMeV] / II: TVP[Sar][NMeV]; ester I:1-I:C, II:1-II:C; linker I:N-II:N via Actinocin(1to9); configuration not given here), the survivor count (dose: 2.0 mg/kg/injection, schedule: Q04DX003 (sc), vehicle: saline + alcohol) is reported as 0 of 6 on day 11.

With `Nc1ncnc2c1ncn2C1OC(CO)C(O)C1O` (stereo unspecified) the T/C (dose: 37.5 mg/kg/injection, schedule: Q04DX003 (sc), vehicle: saline) was -23, 29, 38, 54, 57, 60, 66, 70, 85, 95, 107, 108, 135 % of control, the T/C (dose: 75.0 mg/kg/injection, schedule: Q04DX003 (sc), vehicle: saline) was -55, 11, 15, 22, 23, 25, 38, 41, 53, 54 (2×), 64, 77, 90 % of control and the T/C (dose: 150.0 mg/kg/injection, schedule: Q04DX003 (sc), vehicle: saline) was -98, -69 [4 of 6 alive on day 11], -37, 2, 4 [2 of 2 alive on day 11], 17, 20, 25, 33, 50, 54, 95 % of control. For the same molecule, the T/C [9] was -29 [4 of 6 alive on day 11], -12 [4 of 6 alive on day 11], 13, 29 % of control [5 of 6 alive on day 11], the survivor count [9] was 0 of 3 on day 11, 0 of 6 on day 11, 1 of 6 on day 11, 1 of 5 on day 11, 2 of 6 on day 11 and the T/C (dose: 400.0 mg/kg/injection, schedule: Q04DX003 (sc), vehicle: saline) was 136 % of control.

In the case of `Cn1cc(C2NC(=O)c3ccccc3N2)c2ccccc21` (stereo unspecified), the T/C [4] is reported as 135 % of control and the T/C (dose: 600.0 mg/kg/injection, schedule: Q04DX003 (sc), vehicle: Klucel (hydroxypropylcellulose) (HPC)) is reported as 133 % of control.
